Laboratory results from patent US4772459A, “Method for controlling emesis caused by chemotherapeutic agents and antiemetic agents useful therein” (priority 1986, dated 1988).
Structures can show the parent of a compound that is named as a salt. Some results were stated once for a whole list of compounds, not compound by compound.

What was measured:
Cisplatin Emesis = format: in vivo, Beagle dogs; conditions: data in Table 2
Experimental: Mature Beagle dogs of either sex, weighing 7-16 kg, were individually caged with water available ad libitum. Each animal was offered 300 g of Purina Dog Chow the day of an experiment. Drug in varying doses or carrier was administered intravenously 30 minutes before and 120 minutes after intravenous bolus administration of 3 mg/kg cisplatin (Ben Venue Laboratories, Inc., Bedford, Ohio). […] Emesis was considered blocked if the animal suffered 2 or less emetic events. Based upon these observations, ED50 values were determined for each of the compounds tested.

Apomorphine Climbing = format: in vivo, ICR-Swiss mice (male); conditions: apomorphine climbing and catalepsy data
Experimental: Male ICR-Swiss mice (Harlan Industries, Indianapolis, Ind.), weighing 25-29 g, were placed in 8×10×16 cm wire cages. After a 1 to 1.5 hour acclimatization period, drug or carrier was administered intraperitoneally. Apomorphine hydrochloride (Lilly; 1 mg/kg) or carrier (saline, 10.0 ml/kg) was administered subcutaneously 30 minutes after test compound administration. Climbing behavior was assessed 20 minutes after apomorphine injection using the following scoring system:
(0) 4 paws on the floor of the cage
(1) 1, 2, or 3 paws grasping a side of the cage
(2) 4 paws grasping a side of the cage.
Climbing indexes were calculated using the formula: [formula] 50% ED values (i.e., the dose of drug which yields a climbing index of 100) were calculated using regression equations.

Catalepsy = format: in vivo, Sprague Dawley rats (female); conditions: 20 mg/kg i.v., rat, tested one and two hours later; hydrochloride
Experimental: Female Sprague Dawley rats (Harlen Industries, Indianapolis, Ind.), weighing 160-225 g, were used. The animals (n=6) were injected intravenously with drug (20 mg/kg) or carrier (saline; 2 ml/kg) and were tested one and two hours later. This involved placing the front paws of the rat on a horizontal metal bar suspended 10 cm above the table top and recording the number of seconds, to a maximum of 60, that the animal remains in this position. Each animal was tested three times in succession and the average time the animal remained on the bar was calculated. Student's non-paired "t" test was employed to determine the significance of differences between the control and treated groups.

| SMILES | cisplatin antiemetic activity (in words) (Cisplatin Emesis) | dopamine antagonist activity from Table 2 (in words) (Apomorphine Climbing) | Catalepsy (Catalepsy) |
| --- | --- | --- | --- |
| O=C(NC[C@@H]1CCCN1)c1cc(Cl)cc2c1OCC2 [Compound 1, (L)-5-chloro-N--(2-pyrrolidinylmethyl)-2,3-dihydrobenzo[b]furan-7-carboxamide hydrochloride] | potent Cisplatin antiemetics | weak dopamine antagonists | absence of catalepsy |
| Nc1cc2c(c(C(=O)NC[C@@H]3CCCN3)c1)OCC2 [Compound 2, (L)-5-amino-N--(2-pyrrolidinylmethyl)-2,3-dihydrobenzo[b]furan-7-carboxamide hydrochloride] | potent Cisplatin antiemetics | weak dopamine antagonists | absence of catalepsy |
| Nc1c(Cl)cc(C(=O)NC[C@@H]2CCCN2)c2c1CCO2 [Compound 3, (L)-4-amino-5-chloro-N--(2-pyrrolidinylmethyl)-2,3-dihydrobenzo[b]furan-7-carboxamide hydrochloride] | potent Cisplatin antiemetics | weak dopamine antagonists | absence of catalepsy |
| COc1cc(N)c(Cl)cc1C(=O)NC[C@@H]1CCCN1 [Compound 4, (L)-4-amino-5-chloro-2-methoxy-N--(2-pyrrolidinylmethyl)benzamide hydrochloride] | potent Cisplatin antiemetics | weak dopamine antagonists | absence of catalepsy |
